Laboratory results from article PMC8741850.
The exact form of at least one protein or probe is not confirmed. Where cells or extracts were used, other partners may take part. At least one verdict rests on a figure or table, not on a statement of the authors. Where a protein sequence is shown, tags need not be part of it.

Target: T1, HA-C/EBPβ (WT), overexpressed in NRCMs (UniProt P21272)
T1 sequence (looked up, limits assumed): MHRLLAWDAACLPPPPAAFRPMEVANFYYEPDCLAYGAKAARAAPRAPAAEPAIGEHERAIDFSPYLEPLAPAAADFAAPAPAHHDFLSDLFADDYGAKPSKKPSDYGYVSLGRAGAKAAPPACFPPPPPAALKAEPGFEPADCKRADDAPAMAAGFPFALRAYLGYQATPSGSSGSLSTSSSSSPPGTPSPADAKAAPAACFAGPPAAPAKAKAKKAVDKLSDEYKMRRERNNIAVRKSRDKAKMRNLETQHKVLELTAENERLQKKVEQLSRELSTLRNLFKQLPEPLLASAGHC
Experiment: EMSA
Details: nuclear extract of NRCMs overexpressing HA-WT C/EBPβ, control without PARP1 siRNA or inhibitor; EMSA (LightShift): 5 μg nuclear protein, 1 μg poly(dI-dC), 0.05% NP-40, 5 mM MgCl2, 2.5% glycerol, room temperature 10 + 20 min; 6% non-denaturing gel; protein in an extract; protein details: HA; label: 3'-biotin

CGCCTTATTGCGCAATTGCCGC (double strand) [biotin-labeled C/EBPβ probe]
binding result: binds
